The results in this text go back to paper PMC3914983.

Results are given in words; binding and its absence hold for the method and conditions named. Binding seen in cells or lysates may run through a third protein. Binding calls can cover weak binding; strength is not graded here. Sequences can lack the tags named with a protein.

The assay deals with T1, NADPH oxidase 5 (HA-Nox5, Nox5β) (UniProt Q96PH1).
T1 sequence: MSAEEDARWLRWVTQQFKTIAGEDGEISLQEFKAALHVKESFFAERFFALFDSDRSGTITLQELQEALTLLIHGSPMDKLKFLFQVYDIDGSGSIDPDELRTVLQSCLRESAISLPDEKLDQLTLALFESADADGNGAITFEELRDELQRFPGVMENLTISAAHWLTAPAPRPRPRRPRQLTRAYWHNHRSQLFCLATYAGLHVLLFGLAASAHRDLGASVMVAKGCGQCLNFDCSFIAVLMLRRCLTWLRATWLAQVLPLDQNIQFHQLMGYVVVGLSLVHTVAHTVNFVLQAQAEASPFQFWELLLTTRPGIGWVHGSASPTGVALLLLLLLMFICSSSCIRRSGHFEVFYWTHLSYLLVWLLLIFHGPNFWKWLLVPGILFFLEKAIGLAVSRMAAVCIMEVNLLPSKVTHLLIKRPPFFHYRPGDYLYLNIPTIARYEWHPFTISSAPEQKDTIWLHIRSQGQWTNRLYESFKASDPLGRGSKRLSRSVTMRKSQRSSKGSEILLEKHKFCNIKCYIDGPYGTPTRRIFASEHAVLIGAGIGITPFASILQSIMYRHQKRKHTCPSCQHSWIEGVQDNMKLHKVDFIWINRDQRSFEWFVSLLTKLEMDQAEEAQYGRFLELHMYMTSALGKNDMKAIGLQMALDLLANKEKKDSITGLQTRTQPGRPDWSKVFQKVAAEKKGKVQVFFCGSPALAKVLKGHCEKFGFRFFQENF
The assay is described as follows: co-IP; COS-7 cells expressing HA-Nox5 lysed in 20 mM Tris-HCl pH 7.4, 1% Triton X-100, 100 mM NaCl; soluble extracts incubated 2 h at 4°C with anti-HA or control mouse IgG, precipitated with protein A/G agarose; immune complexes blotted for HA-Nox5 and PKCα.

Consider Protein kinase C alpha (PKCα) (enzyme), for which the binding result is listed as “binds”.
